The record followed here is PubChem BioAssay AID1487 (National Center for Advancing Translational Sciences (NCATS), 2009).

This assay can be described thus: qHTS Assay for Modulators of Lamin A Splicing. Particulars: HeLa LMNA splicing GFP/RFP minigene ratio, 48 h. An outline of the steps: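 S3 HeLa stable clones carrying a lamin A-EGFP splicing minigene plus DsRed2 were seeded at 600 cells/well in Opti-MEM with 2% FBS, pin-dosed and incubated 48 h at 37°C. Acumen cytometry (488 nm) gave the GFP/RFP total-intensity ratio.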
(Quantitative high-throughput screening tests each substance at several concentrations.)

Where [1] appears, read: measured here: GFP splicing reporter channel.
The mark [2] stands for this setting: measured here: RFP viability control channel.

Structures are written as SMILES. The list shows a part of the results. Further columns of the screen follow, without active or inactive calls. Most of these compounds were active or inconclusive in the main read-out, so they are no random draw. Potencies come from curve fits of mixed quality, noted in brackets.

As usually defined, the AC50 is the concentration at which the activity in the assay is half-maximal. `Cn1c(-c2ccccc2)c(C=O)c2ccccc21`: the AC50 was 28.2 µM [falling, partial curve, poor fit] under setting [1] and 39.8 µM [falling, partial curve, poor fit] under setting [2]. As for `Cc1ccc(S(=O)(=O)c2c(N)n(Cc3ccco3)c3nc4ccccc4nc23)cc1C`, the half-maximal activity concentration (AC50) is, setting by setting: under setting [1], 3.55 µM [falling, full curve, poor fit]; under setting [2], 3.98 µM [falling, single point]. As for `C/C(=N\NC(=O)COc1ccc(C(C)(C)C)cc1)c1ccccc1`, under setting [2], the AC50 is 22.4 µM [rising, single point]. For `CCCCC(=O)OCC(=O)[C@]1(O)Cc2c(O)c3c(c(O)c2[C@H](OC2CC(NC(=O)C(F)(F)F)C(O)C(C)O2)C1)C(=O)c1c(OC)cccc1C3=O` (stereo partly drawn), the AC50 is 0.2 µM [rising, full curve, poor fit] under setting [1] and 0.316 µM [rising, full curve] under setting [2]. In the case of `O=C(Nc1ccc(Br)cc1)c1ccc(N2C(=O)C3CC=CCC3C2=O)cc1` (stereo not drawn), the concentration at half-maximal activity (AC50) under setting [1] was 5.62 µM [rising, partial curve]. Regarding `COc1ccc(/C=C/C(=O)c2cc3cccc(OC)c3oc2=O)cc1`, the AC50 runs as follows: under setting [1], 35.5 µM [falling, single point]; under setting [2], 22.4 µM [falling, single point]. As for `CN1CCN2c3ccccc3Cc3ccccc3C2C1` (stereo not drawn), under setting [2], the AC50 was 0.158 µM [falling, full curve, poor fit]. On to `COCCn1c(SCc2ccc(C(=O)OC)o2)nc2cc(Cl)ccc2c1=O`, for which the half-maximal activity concentration (AC50) is 11.2 µM [rising, single point] under setting [1] and 11.2 µM [rising, single point] under setting [2]. As to `CCC(=O)c1ccc(OCC(O)CN2CCN(C(c3ccccc3)c3ccccc3)CC2)cc1` (stereo not drawn), the AC50 by setting is: under setting [1], 35.5 µM [falling, single point]; under setting [2], 35.5 µM [falling, single point]. As for `COc1ccc(-c2cn3nc(SCC(=O)Nc4cc(C)cc(C)c4)ccc3n2)cc1`, the AC50 is 7.08 µM [falling, partial curve] under setting [1] and 22.4 µM [falling, partial curve, poor fit] under setting [2]. For the compound `c1ccc(CNc2nc(NCc3ccco3)nc(N3CCOCC3)n2)cc1`, the AC50 under setting [2] is 15.8 µM [falling, single point].

Take `[N-]=[N+]=Nc1nc2c(N)ncnc2n1C1OC(CO)C(O)C1O` (stereo not drawn): the AC50 was 0.501 µM [falling, full curve, poor fit] under setting [1] and 12.6 µM [falling, partial curve] under setting [2]. Consider `C=CCNC(=O)c1onc(CSc2cccc3ccccc23)c1C(=O)O`, for which the AC50 under setting [1] was 7.94 µM [falling, single point]. As for `Cc1ccc(C2=NN(C(=O)CCl)C(c3cccs3)C2)o1` (stereo not drawn), the AC50 by setting is: under setting [1], 22.4 µM [falling, single point]; under setting [2], 2.51 µM [rising, partial curve, poor fit].
